Laboratory results reported in patent US20140112883A1.
These are yes or no findings as the source states them, for the method shown. Some results given as binding are weak or reduced against the parent protein; the word gives no strength.

What was measured:
[1] = target: soluble human CD4 (Affinity Bioreagents) (human) (UniProt P01730); experiment: ELISA, soluble human CD4 coated at 2 µg/ml, serum TRX1 detected with anti-human IgG F(ab)'2-peroxidase
[2] = target: human CD4 receptor on human lymphocytes (human) (UniProt P01730); experiment: flow cytometry, free TRX1 binding sites stained with biotinylated TRX1, blood of subjects dosed with TRX1
[3] = target: human CD4 receptor on human lymphocytes (human) (UniProt P01730); experiment: flow cytometry of whole blood from dosed subjects, anti-human IgG detection

Measured: binding

B1: TRX1 antibody (humanized anti-CD4 IgG1 monoclonal antibody, aglycosyl, N297A) (antibody, V domains shown)
VH: QVQLVQSGAEVKKPGASVKVSCKASGYTFTAYVISWVRQAPGQGLEWMGEIYPGSGSSYYNEKFKGRVTNTRDTSTSTVYMELSSLRSEDTAVYYCARSGDGSRFVYWGQGTLVTVSS
VL: DIVMTQSPDSLAVSLGERATINCKASQSVDYDGDSYSNWYQQKPGQPPKLLIYVASNLESGVPDRFSGSGSGTDFTLTISSLQAEDVAVYYCQQSLQDPPTFGGGTKVEIKR
binds: [1] | [2] | [3]
